# Source: patent US20050065068A1, “Methods and compositions for reducing serum phosphate levels” (priority 1999, published 2005)
# At least one peptide structure holds a part that was inferred or is arguable (an end, a ring closure or a residue). Non-standard residues stand in square brackets, D forms with d. Residues, ends and D or L forms follow the SMILES beside them. pS = N[C@@H](COP(=O)(O)O)C(=O)O
# Key:
# Type in all cases: in vivo
# [1] = system: ovariectomized female Sprague Dawley rats; experiment: Serum and urine chemistry in the ovariectomized rat osteoporosis model; conditions: OVX rats, 200-208 μg/kg peptide oral daily for 84 days
# Excerpt: Ovariectomized rats were chosen for the efficacy study of a series of peptides. After a six (6) day quarantine/acclimation period, forty (40) ovariectomized female Sprague Dawley outbred (Crl:CD®IGS BR) rats were randomly allocated into five experimental groups of eight animals each. A sixth group was composed of eight sham-operated Sprague Dawley rats. The experimental design consisted of four test-article groups and two vehicle control groups (one ovariectomized and one sham-operated). Each rat received a single daily oral dose for 84 days of either 0.9% Sodium Chloride for Injection (controls) or 200-208 μg/kg of peptide as specified in Table 1. Doses were based upon a target dose of 50 μg/animal/day and group mean body weights determined at study initiation (Day 0). “Sham” indicates sham-operated rats; and “OVX” indicates ovariectomized rats. The dose range of 200-208 μg/kg/day employed in the study represents the target dose (50 μg/animal/day) in animals weighing […] at study initiation. The test samples for groups 1, 2, 3, and 4 were dissolved in 0.9% Sodium Chloride for injection and administered at once. All dosing was accomplished by oral gavage (dose volume 1.0-1.5 mL, adjusted weekly for bodyweight gain). Certified Rodent Diet #5002 (Purina Mills, Inc., St. Louis, Mo.) was provided during the quarantine/acclimation period and throughout the study. Clinical signs were observed once daily throughout the quarantine/acclimation and treatment periods. Individual body weights were recorded at the initiation of the dosing, once weekly throughout the treatment phase, and at necropsy. Animals were sacrificed approximately 24 hours after the administration of the final dose (Day 84). Terminal whole blood samples were collected from each animal for serum chemistry (i.e. measurement of serum calcium and phosphorus) evaluations via terminal cardiocentesis. Femurs were submitted for post-mortem bone mechanical strength and composition analysis.
# [2] = system: ovariectomized female Sprague Dawley rats; experiment: Three-point bending mechanical strength test of the femur in the ovariectomized rat osteoporosis model; conditions: right femur, Day 84, vs. Group 5
# Excerpt: Ovariectomized rats were chosen for the efficacy study of a series of peptides. After a six (6) day quarantine/acclimation period, forty (40) ovariectomized female Sprague Dawley outbred (Crl:CD®IGS BR) rats were randomly allocated into five experimental groups of eight animals each. A sixth group was composed of eight sham-operated Sprague Dawley rats. The experimental design consisted of four test-article groups and two vehicle control groups (one ovariectomized and one sham-operated). Each rat received a single daily oral dose for 84 days of either 0.9% Sodium Chloride for Injection (controls) or 200-208 μg/kg of peptide as specified in Table 1. Doses were based upon a target dose of 50 μg/animal/day and group mean body weights determined at study initiation (Day 0). “Sham” indicates sham-operated rats; and “OVX” indicates ovariectomized rats. The dose range of 200-208 μg/kg/day employed in the study represents the target dose (50 μg/animal/day) in animals weighing […] at study initiation. The test samples for groups 1, 2, 3, and 4 were dissolved in 0.9% Sodium Chloride for injection and administered at once. All dosing was accomplished by oral gavage (dose volume 1.0-1.5 mL, adjusted weekly for bodyweight gain). Certified Rodent Diet #5002 (Purina Mills, Inc., St. Louis, Mo.) was provided during the quarantine/acclimation period and throughout the study. Clinical signs were observed once daily throughout the quarantine/acclimation and treatment periods. Individual body weights were recorded at the initiation of the dosing, once weekly throughout the treatment phase, and at necropsy. Animals were sacrificed approximately 24 hours after the administration of the final dose (Day 84). Terminal whole blood samples were collected from each animal for serum chemistry (i.e. measurement of serum calcium and phosphorus) evaluations via terminal cardiocentesis. […] Load and displacement were recorded at 0.002 mm displacement intervals. […] The maximum load is the largest value of the load recorded during the flexural test. […]
# [3] = system: ovariectomized female Sprague Dawley rats; experiment: Femur phosphorus content (ashing, atomic absorptiometry) in the ovariectomized rat osteoporosis model; conditions: OVX rats, oral daily for 84 days, Day 84
smiles,measurement,setting,value
"N[C@@H](COP(=O)(O)O)C(=O)NCC(=O)N[C@@H](COP(=O)(O)O)C(=O)NCC(=O)N[C@@H](COP(=O)(O)O)C(=O)NCC(=O)N[C@@H](COP(=O)(O)O)C(=O)NCC(=O)N[C@@H](COP(=O)(O)O)C(=O)NCC(=O)N[C@@H](COP(=O)(O)O)C(=O)NCC(=O)N[C@@H](COP(=O)(O)O)C(=O)NCC(=O)O [(Pse-Gly)7, Pse-Gly-Pse-Gly-Pse-Gly-Pse-Gly-Pse-Gly-Pse-Gly-Pse-Gly] (H-[pS]G[pS]G[pS]G[pS]G[pS]G[pS]G[pS]G-OH)",Urine Ca^2+,[1],20.0 ± 12.5 mg/dL
same,Serum AP (serum alkaline phosphatase),[1]; terminal sample Day 84,125 ± 43 U/L
same,Serum Pi (serum inorganic phosphate),[1]; terminal sample Day 84,8.8 ± 1.3 mg/dL
same,Energy at maximum compared with saline-treated ovariectomized controls (FIG. 6),[2],statistically significant increase
same,Initial bone stiffness compared with saline-treated ovariectomized controls (FIG. 4),[2],statistically significant increase
same,Maximum load compared with saline-treated ovariectomized controls (FIG. 5),[2],statistically significant increase
same,Bone (femur) phosphorus content relative to saline-treated ovariectomized controls (FIG. 3),[3]; vs. Group 5,statistically significant increase in bone phosphorus content
same,Bone (femur) phosphorus level relative to sham-operated controls (FIG. 3),[3]; vs. sham-operated controls,restoration of bone phosphorus levels to those of the sham-operated controls
